These are yes or no findings as the source states them, for the method shown. In cells and extracts the contact can be indirect. A yes stands for co-enrichment or nearness to the bait. Other partners may have been found.
Target: MET404 (endogenous, GSC23 cells) (human (endogenous in GSC23)) (UniProt P08581)
Assay: affinity purification with mass spectrometry; MET404 immunoprecipitation from cell lysate (GSC23 by the legend of Fig. 5f), co-IP soft RIPA lysis buffer, antibody at 4 °C overnight, protein A/G agarose, washed with PBST, SDS-PAGE and LC-MS

Substance: HSP90AA1 (from UniProt P07900 1-732)
- binding: binds

Reference: publication PMC10368723
